# Data taken from the supplement of paper PMC12819154, “High-throughput peptide-centric local stability assay extends protein–ligand identification to membrane proteins, tissues and bacteria” (Nature Structural & Molecular Biology, 2025).
# By UniProt entry, the sequences of proteins in these tests, tags left out. Where a name states a change or a piece, a line headed by the entry shows the natural chain unless it says otherwise.
# UniProt O00410: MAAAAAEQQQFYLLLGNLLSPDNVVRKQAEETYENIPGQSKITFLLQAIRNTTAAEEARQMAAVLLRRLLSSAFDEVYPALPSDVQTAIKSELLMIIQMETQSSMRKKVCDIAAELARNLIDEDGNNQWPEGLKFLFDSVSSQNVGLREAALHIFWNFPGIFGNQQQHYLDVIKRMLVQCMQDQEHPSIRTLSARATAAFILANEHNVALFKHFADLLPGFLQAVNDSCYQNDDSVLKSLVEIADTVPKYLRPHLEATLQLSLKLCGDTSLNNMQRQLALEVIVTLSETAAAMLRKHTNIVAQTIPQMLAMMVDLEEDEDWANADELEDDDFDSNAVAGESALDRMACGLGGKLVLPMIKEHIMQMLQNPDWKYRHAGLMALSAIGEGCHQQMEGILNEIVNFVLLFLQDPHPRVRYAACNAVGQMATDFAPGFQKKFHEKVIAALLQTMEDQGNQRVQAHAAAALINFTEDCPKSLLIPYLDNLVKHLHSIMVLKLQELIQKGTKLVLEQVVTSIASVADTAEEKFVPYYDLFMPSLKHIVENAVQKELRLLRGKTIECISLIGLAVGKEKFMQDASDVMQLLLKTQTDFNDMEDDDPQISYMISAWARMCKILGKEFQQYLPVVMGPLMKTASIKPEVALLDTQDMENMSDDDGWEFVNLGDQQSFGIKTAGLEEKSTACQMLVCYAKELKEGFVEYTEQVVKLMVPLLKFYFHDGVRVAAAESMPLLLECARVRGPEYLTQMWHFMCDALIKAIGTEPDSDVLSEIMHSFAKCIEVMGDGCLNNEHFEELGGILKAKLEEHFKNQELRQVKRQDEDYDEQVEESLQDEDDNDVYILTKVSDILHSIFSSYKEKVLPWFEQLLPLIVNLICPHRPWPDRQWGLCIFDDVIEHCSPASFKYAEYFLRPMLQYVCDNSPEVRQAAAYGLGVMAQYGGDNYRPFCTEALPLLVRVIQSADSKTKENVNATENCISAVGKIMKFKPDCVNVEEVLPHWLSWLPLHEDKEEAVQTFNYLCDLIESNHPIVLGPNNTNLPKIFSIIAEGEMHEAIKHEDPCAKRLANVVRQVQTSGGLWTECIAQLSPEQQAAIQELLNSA
# UniProt C9JN71: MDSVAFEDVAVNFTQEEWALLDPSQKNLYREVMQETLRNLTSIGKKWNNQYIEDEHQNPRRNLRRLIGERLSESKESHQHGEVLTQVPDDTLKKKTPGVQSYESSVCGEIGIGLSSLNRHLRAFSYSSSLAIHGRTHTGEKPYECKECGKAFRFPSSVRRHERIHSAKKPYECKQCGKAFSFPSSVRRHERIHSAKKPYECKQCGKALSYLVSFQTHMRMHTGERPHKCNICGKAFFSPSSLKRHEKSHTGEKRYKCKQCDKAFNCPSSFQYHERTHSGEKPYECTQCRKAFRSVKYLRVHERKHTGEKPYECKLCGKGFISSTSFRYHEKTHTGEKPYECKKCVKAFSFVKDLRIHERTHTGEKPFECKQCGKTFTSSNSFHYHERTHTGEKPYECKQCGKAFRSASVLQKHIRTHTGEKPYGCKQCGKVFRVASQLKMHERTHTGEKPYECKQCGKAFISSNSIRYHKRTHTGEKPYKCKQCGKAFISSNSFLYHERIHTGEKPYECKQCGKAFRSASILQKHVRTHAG
# UniProt O00767: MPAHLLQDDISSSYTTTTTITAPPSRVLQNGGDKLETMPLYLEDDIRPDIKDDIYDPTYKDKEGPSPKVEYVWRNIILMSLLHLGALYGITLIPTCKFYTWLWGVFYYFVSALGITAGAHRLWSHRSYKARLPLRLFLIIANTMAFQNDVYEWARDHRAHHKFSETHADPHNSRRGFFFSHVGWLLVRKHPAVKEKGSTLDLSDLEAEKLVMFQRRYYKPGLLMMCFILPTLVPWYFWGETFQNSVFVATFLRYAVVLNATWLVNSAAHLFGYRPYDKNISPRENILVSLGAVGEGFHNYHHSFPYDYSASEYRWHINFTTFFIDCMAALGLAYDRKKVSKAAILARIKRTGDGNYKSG
# UniProt A8MWD9, whole entry: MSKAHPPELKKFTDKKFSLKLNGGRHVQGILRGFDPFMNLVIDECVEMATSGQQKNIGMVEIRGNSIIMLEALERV
# UniProt O15050: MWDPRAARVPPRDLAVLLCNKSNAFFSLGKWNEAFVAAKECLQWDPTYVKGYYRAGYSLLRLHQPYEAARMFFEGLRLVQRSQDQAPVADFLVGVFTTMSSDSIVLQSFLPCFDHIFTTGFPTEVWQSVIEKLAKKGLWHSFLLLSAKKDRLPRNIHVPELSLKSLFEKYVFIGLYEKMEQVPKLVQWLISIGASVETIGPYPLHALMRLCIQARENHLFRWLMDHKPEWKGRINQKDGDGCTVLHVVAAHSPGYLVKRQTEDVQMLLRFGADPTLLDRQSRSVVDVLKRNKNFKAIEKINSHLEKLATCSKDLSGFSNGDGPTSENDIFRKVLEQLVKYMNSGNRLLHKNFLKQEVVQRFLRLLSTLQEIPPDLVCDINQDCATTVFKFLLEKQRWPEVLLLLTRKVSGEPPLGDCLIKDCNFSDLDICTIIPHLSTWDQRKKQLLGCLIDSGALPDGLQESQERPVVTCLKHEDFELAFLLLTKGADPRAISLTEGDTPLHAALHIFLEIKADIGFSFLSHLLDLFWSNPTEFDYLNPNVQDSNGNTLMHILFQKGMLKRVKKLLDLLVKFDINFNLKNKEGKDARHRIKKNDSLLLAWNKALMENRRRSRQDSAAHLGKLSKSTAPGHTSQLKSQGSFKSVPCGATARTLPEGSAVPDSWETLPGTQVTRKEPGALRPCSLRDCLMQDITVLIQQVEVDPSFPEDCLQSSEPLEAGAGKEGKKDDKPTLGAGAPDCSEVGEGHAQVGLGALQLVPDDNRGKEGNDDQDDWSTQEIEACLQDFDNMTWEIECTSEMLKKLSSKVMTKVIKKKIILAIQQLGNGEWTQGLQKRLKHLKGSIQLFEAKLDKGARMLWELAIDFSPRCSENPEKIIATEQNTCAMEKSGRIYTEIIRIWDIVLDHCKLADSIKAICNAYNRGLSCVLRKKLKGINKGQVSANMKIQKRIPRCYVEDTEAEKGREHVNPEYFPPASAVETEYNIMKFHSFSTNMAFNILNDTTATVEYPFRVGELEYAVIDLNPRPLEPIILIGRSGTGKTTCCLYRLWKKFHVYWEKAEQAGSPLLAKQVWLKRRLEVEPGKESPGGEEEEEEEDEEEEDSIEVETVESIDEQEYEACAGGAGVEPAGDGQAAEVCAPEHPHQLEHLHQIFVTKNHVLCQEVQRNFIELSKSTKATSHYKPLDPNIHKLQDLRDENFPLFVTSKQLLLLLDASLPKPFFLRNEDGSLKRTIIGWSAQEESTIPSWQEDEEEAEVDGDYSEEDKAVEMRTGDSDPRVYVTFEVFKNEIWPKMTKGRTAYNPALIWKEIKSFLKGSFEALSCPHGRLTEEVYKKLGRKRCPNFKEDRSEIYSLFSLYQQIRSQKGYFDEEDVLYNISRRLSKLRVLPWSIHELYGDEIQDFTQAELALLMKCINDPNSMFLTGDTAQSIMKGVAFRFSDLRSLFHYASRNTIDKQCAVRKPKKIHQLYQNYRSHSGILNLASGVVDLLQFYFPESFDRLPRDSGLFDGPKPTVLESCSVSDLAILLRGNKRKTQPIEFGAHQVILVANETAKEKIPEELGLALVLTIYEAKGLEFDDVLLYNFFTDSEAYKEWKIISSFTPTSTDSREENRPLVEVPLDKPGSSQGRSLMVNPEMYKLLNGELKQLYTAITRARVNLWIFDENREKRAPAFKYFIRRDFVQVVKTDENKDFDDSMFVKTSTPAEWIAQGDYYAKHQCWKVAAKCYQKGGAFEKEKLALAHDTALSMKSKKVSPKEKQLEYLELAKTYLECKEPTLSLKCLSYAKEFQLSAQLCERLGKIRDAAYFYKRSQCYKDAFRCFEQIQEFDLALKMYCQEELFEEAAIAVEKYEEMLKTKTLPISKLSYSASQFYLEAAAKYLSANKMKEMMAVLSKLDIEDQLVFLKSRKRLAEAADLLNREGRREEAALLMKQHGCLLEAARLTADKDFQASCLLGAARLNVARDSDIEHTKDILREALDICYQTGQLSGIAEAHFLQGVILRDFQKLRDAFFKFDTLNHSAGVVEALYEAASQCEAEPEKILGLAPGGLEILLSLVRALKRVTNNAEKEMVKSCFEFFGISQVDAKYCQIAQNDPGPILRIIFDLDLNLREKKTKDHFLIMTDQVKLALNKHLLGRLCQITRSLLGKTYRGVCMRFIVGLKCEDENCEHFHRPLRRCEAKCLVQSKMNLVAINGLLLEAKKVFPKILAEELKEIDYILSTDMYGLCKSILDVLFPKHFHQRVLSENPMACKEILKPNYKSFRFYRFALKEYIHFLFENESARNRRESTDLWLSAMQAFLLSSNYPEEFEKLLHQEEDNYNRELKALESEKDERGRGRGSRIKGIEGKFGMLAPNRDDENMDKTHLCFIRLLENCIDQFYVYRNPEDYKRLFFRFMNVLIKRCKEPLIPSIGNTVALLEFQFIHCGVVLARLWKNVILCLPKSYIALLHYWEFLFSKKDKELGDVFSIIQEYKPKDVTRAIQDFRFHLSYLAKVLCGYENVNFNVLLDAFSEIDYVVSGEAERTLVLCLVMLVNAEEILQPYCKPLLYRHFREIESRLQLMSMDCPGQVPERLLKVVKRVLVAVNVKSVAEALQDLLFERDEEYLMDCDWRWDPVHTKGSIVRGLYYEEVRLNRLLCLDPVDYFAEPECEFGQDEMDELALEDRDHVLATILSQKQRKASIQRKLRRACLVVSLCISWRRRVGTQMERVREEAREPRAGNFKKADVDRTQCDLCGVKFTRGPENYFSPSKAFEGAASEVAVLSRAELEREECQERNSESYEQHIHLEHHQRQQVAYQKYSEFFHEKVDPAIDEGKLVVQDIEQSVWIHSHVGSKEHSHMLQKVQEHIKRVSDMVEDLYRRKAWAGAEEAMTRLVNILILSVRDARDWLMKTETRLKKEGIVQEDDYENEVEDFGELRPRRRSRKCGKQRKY
# UniProt O15287: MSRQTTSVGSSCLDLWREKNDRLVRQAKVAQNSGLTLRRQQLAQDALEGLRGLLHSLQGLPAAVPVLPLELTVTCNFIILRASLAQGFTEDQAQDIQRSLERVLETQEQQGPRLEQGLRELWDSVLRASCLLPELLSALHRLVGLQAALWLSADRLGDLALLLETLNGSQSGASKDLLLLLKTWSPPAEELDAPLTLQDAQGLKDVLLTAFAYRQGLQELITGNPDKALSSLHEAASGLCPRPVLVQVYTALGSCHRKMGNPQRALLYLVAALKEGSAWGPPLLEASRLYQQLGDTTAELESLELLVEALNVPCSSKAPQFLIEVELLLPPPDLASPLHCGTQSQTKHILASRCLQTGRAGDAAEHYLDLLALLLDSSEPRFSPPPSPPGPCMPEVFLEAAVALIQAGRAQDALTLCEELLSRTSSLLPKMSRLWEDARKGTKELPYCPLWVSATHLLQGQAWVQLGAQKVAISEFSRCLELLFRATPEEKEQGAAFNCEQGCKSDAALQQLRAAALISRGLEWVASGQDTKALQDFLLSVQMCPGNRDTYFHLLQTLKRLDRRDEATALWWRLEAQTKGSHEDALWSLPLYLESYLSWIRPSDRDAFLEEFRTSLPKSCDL
# UniProt O00192: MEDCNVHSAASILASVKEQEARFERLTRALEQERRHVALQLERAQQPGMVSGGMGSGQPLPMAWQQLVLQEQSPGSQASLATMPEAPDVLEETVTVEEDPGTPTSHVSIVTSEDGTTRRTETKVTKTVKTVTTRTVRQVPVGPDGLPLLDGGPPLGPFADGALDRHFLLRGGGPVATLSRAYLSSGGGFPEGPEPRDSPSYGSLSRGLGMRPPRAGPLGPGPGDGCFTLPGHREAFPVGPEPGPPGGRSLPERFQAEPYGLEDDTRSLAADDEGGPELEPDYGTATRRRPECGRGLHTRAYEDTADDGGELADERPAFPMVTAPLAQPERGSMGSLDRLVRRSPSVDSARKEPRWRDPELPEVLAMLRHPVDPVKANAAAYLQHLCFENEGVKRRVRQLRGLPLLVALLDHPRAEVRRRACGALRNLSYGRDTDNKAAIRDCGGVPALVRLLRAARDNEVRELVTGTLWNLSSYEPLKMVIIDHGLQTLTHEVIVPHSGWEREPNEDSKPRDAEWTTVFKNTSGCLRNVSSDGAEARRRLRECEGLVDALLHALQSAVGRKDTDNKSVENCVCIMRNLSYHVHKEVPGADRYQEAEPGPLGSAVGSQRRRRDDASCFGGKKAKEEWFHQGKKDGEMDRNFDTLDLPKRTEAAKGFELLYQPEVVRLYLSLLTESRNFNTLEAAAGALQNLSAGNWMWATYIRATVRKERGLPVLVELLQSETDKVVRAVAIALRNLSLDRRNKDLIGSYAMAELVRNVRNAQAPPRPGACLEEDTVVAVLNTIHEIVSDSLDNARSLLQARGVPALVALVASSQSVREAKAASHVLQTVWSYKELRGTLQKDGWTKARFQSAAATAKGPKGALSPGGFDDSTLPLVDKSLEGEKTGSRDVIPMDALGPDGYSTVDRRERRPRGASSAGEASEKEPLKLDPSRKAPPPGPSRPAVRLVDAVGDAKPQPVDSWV
# The list shows a part of the results. Small differences around the control level are noise.
# Compound: CN[C@@H]1C[C@H]2O[C@@](C)([C@@H]1OC)n1c3ccccc3c3c4c(c5c6ccccc6n2c5c31)C(=O)NC4 [staurosporine]
# Assay: log2 fold change of tryptic peptide abundance, ligand vs vehicle (limited proteolysis) (log2 ratio); higher = more trypsin-susceptible (destabilized)
# Conditions: ligand concentration: 20 uM; sample: K562 cleared lysate; digestion: 4 min, 22 C (HT-PELSA RT4min, Orbitrap Astral)
row,Target,log2 fold change
1,"IPO5 (peptide sequence: FYFHDGVR, peptide start residue: 713) (UniProt O00410)",0.736
2,"UniProt A8MT65 (peptide sequence: TKESTVQK, peptide start residue: 121)",0.113
3,"SDCBP (peptide sequence: ITSIVKDSSAAR, peptide start residue: 218) (UniProt O00560)",0.566
4,"GOLIM4 (peptide sequence: EADPESEADR, peptide start residue: 533) (UniProt O00461)",-1.21
5,"NKRF (peptide sequence: CRVFLQDHCLAEGYGTK, peptide start residue: 378) (UniProt O15226)",-0.674
6,"UniProt O15265 (peptide sequence: VPAVNNVHMK, peptide start residue: 859)",-0.503
7,"UniProt C9JN71 (peptide sequence: AFFSPSSLKR, peptide start residue: 235)",-0.0702
8,"ARHGEF11 (peptide sequence: EISDLMLAR, peptide start residue: 808) (UniProt O15085)",0.641
9,"NDC80 (peptide sequence: LKDLFNVDAFKLESLEAK, peptide start residue: 254) (UniProt O14777)",0.481
10,"UniProt L0R819 (peptide sequence: IVVDELSNLKK, peptide start residue: 36)",0.172
11,"SCD (peptide sequence: GFFFSHVGWLLVR, peptide start residue: 176) (UniProt O00767)",0.455
12,"BACH1 (peptide sequence: TFGESQDLPLKSDLGTR, peptide start residue: 360) (UniProt O14867)",-0.28
13,"FANCA (peptide sequence: DSLFFCLK, peptide start residue: 828) (UniProt O15360)",-0.427
14,"TOR1B (peptide sequence: KPLTLSLHGWAGTGK, peptide start residue: 101) (UniProt O14657)",-0.443
15,"IGF2BP3 (peptide sequence: KENAGAAEK, peptide start residue: 234) (UniProt O00425)",0.382
16,"UniProt A6NKT7 (peptide sequence: KVEHLAVR, peptide start residue: 2415)",0.426
17,"SMIM1 (peptide sequence: MQPQESHVHYSR, peptide start residue: 1) (UniProt B2RUZ4)",-0.115
18,"PES1 (peptide sequence: CHVQTIQLCR, peptide start residue: 153) (UniProt O00541)",-0.163

row,Target,log2 fold change
1,"LSM1 (peptide sequence: SIDQFANLVLHQTVER, peptide start residue: 34) (UniProt O15116)",0.118
2,"SNRPGP15 (peptide sequence: AHPPELKK, peptide start residue: 4) (UniProt A8MWD9)",0.123
3,"LBA1 (peptide sequence: ALESEKDER, peptide start residue: 2320) (UniProt O15050)",0.654
4,"TCAF2 (peptide sequence: APVVTHQCWMDRTER, peptide start residue: 590) (UniProt A6NFQ2)",-0.301
5,"AP4M1 (peptide sequence: VAPSSAASRPVLSSR, peptide start residue: 164) (UniProt O00189)",0.0264
6,"IMPA2 (peptide sequence: VSGETDLSK, peptide start residue: 159) (UniProt O14732)",0.338
7,"UniProt A6NKF1 (peptide sequence: LEVVPGCR, peptide start residue: 78)",-0.189
8,"CBX4 (peptide sequence: RREEEVSGVSDPQPQDAGSR, peptide start residue: 327) (UniProt O00257)",-0.323
9,"FHAD1 (peptide sequence: ETLEEERK, peptide start residue: 703) (UniProt B1AJZ9)",-0.0538
10,"BCL9 (peptide sequence: FAMPSSTPLYHDAIK, peptide start residue: 1016) (UniProt O00512)",0.382
11,"OPLAH (peptide sequence: ITDPEILESR, peptide start residue: 1145) (UniProt O14841)",-0.704
12,"BCKDK (peptide sequence: QLLDDHKDVVTLLAEGLR, peptide start residue: 157) (UniProt O14874)",-0.288
13,"FANCG (peptide sequence: DTYFHLLQTLK, peptide start residue: 549) (UniProt O15287)",0.388
14,"CES2 (peptide sequence: ADHGDELPFVFR, peptide start residue: 455) (UniProt O00748)",0.125
15,"ARVCF (peptide sequence: GVPALVALVASSQSVR, peptide start residue: 802) (UniProt O00192)",-0.361
16,"PFDN6 (peptide sequence: KLQGEVEKYQQLQK, peptide start residue: 8) (UniProt O15212)",-0.172
17,"ADAM10 (peptide sequence: ESYQMGHMR, peptide start residue: 739) (UniProt O14672)",0.853
18,"UniProt O00444 (peptide sequence: VIQDAEERPHSR, peptide start residue: 360)",-0.107

# Reformatted as tab-separated lines: entries from further up
row	Target	log2 fold change
17	ADAM10 (peptide sequence: ESYQMGHMR, peptide start residue: 739) (UniProt O14672)	0.853
18	UniProt O00444 (peptide sequence: VIQDAEERPHSR, peptide start residue: 360)	-0.107
